## Percent effect of library compounds

By UniProt entry, the sequences of proteins in these tests, tags left out. Residues count along the entry.
UniProt Q4DA54, 1-478: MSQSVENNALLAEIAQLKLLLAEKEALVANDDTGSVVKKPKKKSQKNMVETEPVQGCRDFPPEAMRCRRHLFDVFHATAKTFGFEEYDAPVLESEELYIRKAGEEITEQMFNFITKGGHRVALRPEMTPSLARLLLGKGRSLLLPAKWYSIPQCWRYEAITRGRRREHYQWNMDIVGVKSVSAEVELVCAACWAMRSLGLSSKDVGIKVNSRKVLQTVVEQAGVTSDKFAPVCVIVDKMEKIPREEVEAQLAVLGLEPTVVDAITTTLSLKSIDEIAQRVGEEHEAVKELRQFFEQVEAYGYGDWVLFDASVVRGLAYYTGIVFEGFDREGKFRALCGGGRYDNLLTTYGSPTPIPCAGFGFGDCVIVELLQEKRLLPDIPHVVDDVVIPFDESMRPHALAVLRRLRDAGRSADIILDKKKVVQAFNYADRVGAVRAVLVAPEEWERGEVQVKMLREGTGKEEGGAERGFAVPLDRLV
UniProt A4I591, 1-473: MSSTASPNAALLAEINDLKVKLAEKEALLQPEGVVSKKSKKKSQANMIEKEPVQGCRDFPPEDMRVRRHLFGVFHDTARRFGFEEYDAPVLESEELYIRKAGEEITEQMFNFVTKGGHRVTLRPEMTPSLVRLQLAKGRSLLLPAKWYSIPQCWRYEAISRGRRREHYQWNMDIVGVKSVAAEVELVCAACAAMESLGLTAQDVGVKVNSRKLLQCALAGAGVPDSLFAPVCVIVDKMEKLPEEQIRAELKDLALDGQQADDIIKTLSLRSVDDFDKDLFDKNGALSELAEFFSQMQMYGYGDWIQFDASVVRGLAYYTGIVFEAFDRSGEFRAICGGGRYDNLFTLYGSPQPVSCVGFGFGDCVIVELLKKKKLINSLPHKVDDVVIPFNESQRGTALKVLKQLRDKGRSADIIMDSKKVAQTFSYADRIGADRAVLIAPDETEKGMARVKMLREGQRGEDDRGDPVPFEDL

Data taken from ChEMBL document CHEMBL3988442, “University of Dundee, Small-Polar-MMV Screening Library” (2021).

Results are given as percent effect.
The record does not define 0% and 100%; most values in the screen are far below 50% and negative numbers occur (in some assays of this library far below -100).
This is an unselected part of the compounds tested.
A dash means the value is not listed here; it may have been measured.

T. brucei: 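Whole-parasite assay of Trypanosoma brucei over 72 hours; the read-out is not stated. Concentration: 30 µM. Direction is inferred from retests: higher values go with stronger inhibition. Values scatter widely below zero; nearly all retest evidence comes from the higher of the two concentrations used. About 64,000 compounds were tested under these conditions; 1.5% (about 940) showed 50% or more at least once.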
TcHisRS: 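Enzyme assay of histidyl-tRNA synthetase; the read-out is not stated. Target: Histidine-tRNA ligase, Trypanosoma cruzi CL Brener (UniProt Q4DA54). Compounds at 30 µM. Direction is inferred from retests: higher values go with stronger inhibition. About 69,000 compounds were tested under these conditions; 0.045% (about 31) showed 50% or more at least once.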
LiHisRS: 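Histidine-tRNA ligase, Leishmania infantum (UniProt A4I591). Enzyme assay of histidyl-tRNA synthetase; the read-out is not stated. Compounds at 30 µM. Higher reads as stronger inhibition (inferred: compounds with an IC50 in retests scored well above the rest). The assay is labelled LdHisRS but filed under L. infantum. Size under these conditions: about 69,000 compounds, about 410 of them at 50% or above in at least one test.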

| # | compound | T. brucei | TcHisRS | LiHisRS |
|---|---|---|---|---|
| 1 | `CCc1ccc(S(=O)(=O)NCCC(O)c2ccoc2)s1` (stereo not drawn) | 3.109 | -1.212 | 12.99 |
| 2 | `Cc1oc(-c2nc(C#N)c(NC3CC3)o2)cc1S(=O)(=O)N1CCCC1` | -31.02 | -2.924 | 7.895 |
| 3 | `CNc1ncc(C(=O)N2CCC(CCc3ccccc3)CC2)cn1` | -11.9 | 0 | -1.149 |
| 4 | `Cc1nc2n(n1)CC(NCc1nc(-c3cccnc3)no1)CC2` (stereo not drawn) | 7.55 | 5.042 | 19.83 |
| 5 | `CC(C)NC1CCc2c(ccc(=O)n2CCN(C)C)C1` (stereo not drawn) | - | 0.5348 | 4.274 |
| 6 | `CCN(CC)CCCN1CCC(NC(=O)OC(C)(C)C)CC1` | 24 | 2.041 | 11.43 |
| 7 | `O=C(O)c1ccc(CCNC(=O)C2(c3ccccc3)CC2)cc1` | -11.86 | -5.202 | 14.67 |
| 8 | `COc1ccc(NC(=O)N(C)Cc2ccsc2)cn1` | - | 5.714 | 11.86 |
| 9 | `COc1ccc(OC)c2c(C)cc(N(C)Cc3cc(C)on3)nc12` | -48.53 | 7.143 | 5.714 |
| 10 | `O=C1CC(c2ccccc2)C2(CCN(C(=O)c3cnccn3)CC2)N1` (stereo not drawn) | 0.9029 | 4.926 | 11.76 |
| 11 | `O=S(=O)(c1cccnc1)N1C[C@@H]2CC[C@H](C1)N(Cc1ccccn1)C2` | - | 4.712 | 7.527 |
| 12 | `CCS(=O)(=O)NCC(=O)N1CC2(CCCC2)c2c(F)cccc21` | -21.68 | 5.263 | 9.167 |
| 13 | `CC(C)Cn1cncc1CNC(=O)c1cccc(Cn2cccn2)c1` | -16.61 | 5.946 | 6.838 |
| 14 | `CCN1CC2(CCN(CCOc3ccc(F)cc3)CC2)CC1=O` | -9.547 | 0 | -3.448 |
| 15 | `CCNC(=O)c1nnc2ccc(N3CCOCC3)cc2n1` | -17.09 | 1.639 | 15.53 |
| 16 | `NCCO[C@H]1C[C@@H](O)C12CCN(C(=O)COc1cccc(Cl)c1)CC2` | -10.07 | 6.061 | 18.03 |
| 17 | `CN1CCC(N(C)C(=O)CCc2ccc(F)c(F)c2)C1=O` (stereo not drawn) | -9.751 | 0 | 21.92 |
| 18 | `CC(CCc1ccccc1)NC(=O)CNCCCN(C)C` (stereo not drawn) | - | 3.191 | 4.478 |
| 19 | `O=C1CCCN1Cc1ncn2c1CN(C(=O)N1CCCC1)CCC2` | - | 5.607 | 12.5 |
| 20 | `CC(C)(C)NC(=O)Cn1c(=O)n(Cc2ccco2)c2ncccc21` | 5.519 | 9.89 | 15.94 |
| 21 | `CS(=O)(=O)N[C@@H]1CN(C(=O)c2ccccn2)[C@@H]2CCCO[C@@H]21` | - | -1.657 | 9.023 |
| 22 | `O=C(Nc1ccc(CCN2CCC(O)CC2)cc1)C1CCCOC1` (stereo not drawn) | - | 0.8746 | 0 |
| 23 | `CC(C)c1nc(CN2CCC(CO)CC2)cs1` | -8.417 | -7.563 | 13.22 |
| 24 | `CC(C(=O)NCC1(c2cccc(Br)c2)CCC1)S(C)(=O)=O` (stereo not drawn) | 7.541 | 8.621 | 14.91 |
| 25 | `CC(C)(O)CCc1cccc(C(=O)NCCC2=CSC3=NCCCN23)c1` | -19.31 | 4.478 | 6.993 |
| 26 | `O=C(CCc1nnc2ccccn2c1=O)NCc1ccco1` | -11.53 | 4.95 | 14.29 |
| 27 | `Cc1[nH]/c(=N\C(=O)c2csc(NC3CC3)n2)sc1C` | 66.57 | 0.8264 | 19.05 |
| 28 | `COC(=O)c1cc2c(=O)n(C3CCCC3)ccc2nc1C` | -29.34 | -0.5848 | 7.895 |
| 29 | `CC(C)c1nccn1C1CCCN(C(=O)c2ccnc(N(C)C)c2)C1` (stereo not drawn) | 5.679 | -0.3774 | 5.333 |
| 30 | `COc1ccccc1-n1c(CC(C)C)nnc1SCC(=O)O` | -33.38 | -2.128 | 9.375 |
| 31 | `CCn1ncc(C(=O)NCc2ccc(C)c(OC)c2)c1C(F)(F)F` | -2.664 | 4.878 | 18.42 |
| 32 | `Cc1nc(C(=O)N(C)CC(=O)N(C)C)nn1-c1ccccc1C(C)C` | -68.27 | 6.14 | 10.71 |
| 33 | `CCn1cnnc1CCNC(=O)C(C)(C)c1cccc(Cl)c1` | 0.5456 | 0.8403 | 15.79 |
| 34 | `NC(=O)C1CCN(C(=O)NCCOc2ccc3c(c2)CCC3)CC1` | -1.061 | 3.812 | 13.89 |
| 35 | `Cc1nc(C2CCCN2Cc2cc(Cl)c3c(c2)OCCO3)no1` (stereo not drawn) | -26.55 | 17.92 | 31.91 |
| 36 | `CC(NC(=O)NCCCc1n[nH]c(N)c1C#N)c1ccc(Cl)cc1` (stereo not drawn) | - | 6.286 | 5.085 |
| 37 | `CCc1nc(Cn2c(=O)c3c(C(F)(F)F)cc(C)nc3n2C)no1` | -14.26 | 1.327 | 15.04 |
| 38 | `CCNC(=O)C1CCN(c2cc(-c3ccccc3)nc3cc(C)nn23)C1` (stereo not drawn) | -10.5 | 9.551 | 12.82 |
| 39 | `CCOc1ccccc1CN(C)C(C)c1nc(-c2cccnc2)no1` (stereo not drawn) | -52.05 | 4.972 | 5.181 |
| 40 | `Cc1nccn1-c1ccc(NS(=O)(=O)c2cnn(C(C)C)c2)cn1` | -15.54 | 2.762 | 50.6 |
| 41 | `CCN1C[C@H]2C3(CCN(S(=O)(=O)CC)CC3)CC[C@@]2(C(=O)N(C)C)C1` | - | 2.674 | 7.692 |
| 42 | `Cc1cc(F)cc(CN2CCCn3nc(CNS(C)(=O)=O)cc3C2)c1` | -19.03 | 3.061 | 19.44 |
| 43 | `O=C(c1cnccn1)N1CCCC(Cc2cccc3ncccc23)C1` (stereo not drawn) | -10.31 | 2.198 | 18.84 |
| 44 | `Cc1oc(-c2cccc(F)c2F)nc1CN(C)CCO` | 19.45 | 7.921 | 25 |
| 45 | `O=C(c1ccc(Cl)s1)N1CCCn2nc(CN3CC[C@H](F)C3)cc2C1` | -53.46 | 24.85 | 33.33 |
| 46 | `Cc1ccc(OCCC(=O)N(C)CCC#N)cc1C` | -5.002 | 3.333 | 15.09 |
| 47 | `N#Cc1ccc(CN2CCC(CCc3ccc(O)cc3)CC2)cc1` | -28.74 | 10.99 | 17.24 |
| 48 | `Cc1noc(C)c1CNCc1nn(-c2ccccc2)c2c1CCC2` | -40.9 | 5.732 | 4.225 |
| 49 | `Cn1c(=O)[nH]c2cc(C(=O)OCCCn3ccccc3=O)ccc21` | -19.97 | 8.861 | 8.333 |
| 50 | `CCS(=O)(=O)N1CCCC2(COCCN(c3cnccn3)C2)C1` (stereo not drawn) | - | 2.299 | 26.32 |
| 51 | `c1cnn(CC2CN(CCc3ccncc3)CCO2)c1` (stereo not drawn) | -13.36 | 2.642 | 16 |
| 52 | `CC(=O)Cc1c(C)nn(-c2cncc(N)c2)c1C` | 28.17 | 5.603 | 64.56 |
| 53 | `CCCS(=O)(=O)N1CCN(c2ccc3nnc(CC)n3n2)CC1` | -28.64 | 11.06 | 14.63 |
| 54 | `CCN(CC(=O)NC(C)C)C(=O)C(C)(C)c1ccc2c(c1)OCCO2` | -21.76 | 7.895 | 12.5 |
| 55 | `Cn1ccnc1C(O)(CCNCc1ccc(Cl)o1)C(F)(F)F` (stereo not drawn) | -36.71 | -31.37 | 5.882 |
| 56 | `CCN1C(=O)CC[C@@H]2[C@H]1CCN2C(=O)Cc1cccc(OC)c1` | - | 2.151 | 17.54 |
| 57 | `CC(C)(C)c1ccc(C(=O)C2CCCN(C(=O)CNS(C)(=O)=O)C2)cc1` (stereo not drawn) | -41.24 | 1.786 | 8.85 |
| 58 | `CC(c1nc(C2CC2)no1)N1CCN(CCn2ccccc2=O)CC1` (stereo not drawn) | 12.1 | 3.743 | 9.948 |
| 59 | `Cc1cnn(C2CCCN(C(=O)c3cc(-c4ccccc4C)n[nH]3)C2)c1` (stereo not drawn) | -54.41 | 13.94 | 22.22 |
| 60 | `O=C(c1cn(-c2ccccc2)nn1)N1CCCC(n2cccn2)C1` (stereo not drawn) | - | 4.843 | 10.26 |
| 61 | `Cc1noc(C)c1CN(C)C(=O)c1ccc(O)nc1` | 18.02 | 5.202 | 11.4 |
| 62 | `OCCN(Cc1ccccc1)Cc1nc(-c2ccc3c(c2)OCO3)no1` | -49.15 | -1.98 | -7.692 |
| 63 | `c1ccc(COC[C@@H]2CCC[C@]23CN(Cc2nccs2)CCO3)nc1` | - | 7.843 | 10 |
| 64 | `Cc1ccc2nc(CNCCCOc3ccccc3)cc(O)c2c1` | -10.52 | 9.524 | 20.16 |
| 65 | `O=C(NCC1CCCCC1)c1nnn(-c2ccc(Br)cc2)n1` | 18.37 | 2.062 | 15.65 |
| 66 | `Cc1noc(CNC2CCCN(Cc3noc(C4CC4)n3)C2)n1` (stereo not drawn) | -11.32 | 6.433 | 12.73 |
| 67 | `O=C(O)C(F)(F)F.O=C(O)C(F)(F)F.[H][C@@]12CCCO[C@]1([H])[C@H](OCc1ccncc1)CN2Cc1ccoc1` | -49.02 | - | - |
| 68 | `Cn1cc(CN2CCCC3(COCCN(c4cccnc4)C3)C2)cn1` (stereo not drawn) | - | 13.73 | 18 |
| 69 | `COCCN1C(=O)CC(N2CCN(c3ccccc3)CC2)C1=O` (stereo not drawn) | -22.47 | 1.339 | 20.99 |
| 70 | `COc1cccc(S(=O)(=O)N2C[C@@H](O)[C@H](N(C)C)C2)c1` | - | 9.398 | 8.511 |
| 71 | `CC(Cn1ccnc1)NCc1nncn1C1CCCCC1` (stereo not drawn) | -13.13 | 4.233 | 3.03 |
| 72 | `CC(C)N1CCCn2nc(C(=O)NCCc3c[nH]cn3)cc2C1` | -62.18 | 3.529 | 2.381 |

5 of the entries, repeated:

CS(=O)(=O)N[C@@H]1CN(C(=O)c2ccccn2)[C@@H]2CCCO[C@@H]21 gave TcHisRS: -1.657%; LiHisRS: 9.023%.
Cc1nccn1-c1ccc(NS(=O)(=O)c2cnn(C(C)C)c2)cn1 gave T. brucei: -15.54%; TcHisRS: 2.762%; LiHisRS: 50.6%.
O=C(Nc1ccc(CCN2CCC(O)CC2)cc1)C1CCCOC1 (stereo not drawn) gave TcHisRS: 0.8746%; LiHisRS: 0%.
CC(C)c1nc(CN2CCC(CO)CC2)cs1 gave T. brucei: -8.417%; TcHisRS: -7.563%; LiHisRS: 13.22%.
CC(C)(O)CCc1cccc(C(=O)NCCC2=CSC3=NCCCN23)c1 gave T. brucei: -19.31%; TcHisRS: 4.478%; LiHisRS: 6.993%.